Test results as given in paper PMC12700831.

Sequences of proteins named here, by UniProt entry; tags and fusion partners are left off.
UniProt Q5TEA3: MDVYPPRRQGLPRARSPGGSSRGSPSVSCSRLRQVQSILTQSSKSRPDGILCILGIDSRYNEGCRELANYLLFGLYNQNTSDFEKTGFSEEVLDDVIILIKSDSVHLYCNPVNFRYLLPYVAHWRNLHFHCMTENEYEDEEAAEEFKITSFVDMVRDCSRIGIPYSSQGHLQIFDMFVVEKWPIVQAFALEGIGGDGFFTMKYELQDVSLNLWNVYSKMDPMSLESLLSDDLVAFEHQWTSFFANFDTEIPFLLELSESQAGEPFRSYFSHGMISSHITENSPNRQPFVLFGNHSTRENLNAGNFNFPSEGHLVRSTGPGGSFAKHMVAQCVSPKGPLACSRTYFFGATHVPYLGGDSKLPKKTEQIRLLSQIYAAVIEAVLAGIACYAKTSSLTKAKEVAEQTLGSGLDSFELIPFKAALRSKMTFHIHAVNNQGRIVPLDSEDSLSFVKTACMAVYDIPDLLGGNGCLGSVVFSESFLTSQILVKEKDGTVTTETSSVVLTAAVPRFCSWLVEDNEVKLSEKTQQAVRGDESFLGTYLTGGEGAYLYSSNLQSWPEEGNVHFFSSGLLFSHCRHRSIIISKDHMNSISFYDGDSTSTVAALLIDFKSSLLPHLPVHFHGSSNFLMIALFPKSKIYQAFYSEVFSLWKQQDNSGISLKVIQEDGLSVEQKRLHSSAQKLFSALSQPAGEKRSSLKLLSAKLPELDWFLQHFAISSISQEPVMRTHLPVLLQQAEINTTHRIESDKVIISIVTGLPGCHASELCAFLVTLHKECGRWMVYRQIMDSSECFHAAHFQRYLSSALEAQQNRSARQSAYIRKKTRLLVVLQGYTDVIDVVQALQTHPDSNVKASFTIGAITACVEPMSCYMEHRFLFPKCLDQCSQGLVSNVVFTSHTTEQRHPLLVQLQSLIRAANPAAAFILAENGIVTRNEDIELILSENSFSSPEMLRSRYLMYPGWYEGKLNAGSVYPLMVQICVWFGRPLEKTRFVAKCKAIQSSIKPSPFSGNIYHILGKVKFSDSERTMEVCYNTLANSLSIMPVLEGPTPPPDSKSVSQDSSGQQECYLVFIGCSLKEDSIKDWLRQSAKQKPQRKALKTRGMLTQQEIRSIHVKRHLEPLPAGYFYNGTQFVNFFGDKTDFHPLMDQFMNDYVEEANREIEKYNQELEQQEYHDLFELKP

Key:
[1] = target: Tetrahymena thermophila Arl3-Q70L (2×Strep, Sf9) (T. thermophila); experiment: affinity purification with mass spectrometry; Strep pulldown with recombinant Arl3-Q70L as bait from lysates of Tetrahymena cells undergoing ciliary regeneration after deciliation; eluates by MS and silver-stained gel; only the target purified
[2] = target: DNAAF9 (endogenous, human airway epithelial cells) (human (endogenous in HAECs)) (UniProt Q5TEA3); experiment: affinity purification with mass spectrometry; endogenous DNAAF9 immunoprecipitated from HAEC whole-cell lysates at ALI day 19 (ECs) and day 45 (MCs), anti-DNAAF9 against isotype-matched IgG, protein A/G beads, TMT labeling and MS

binding [1]: binds
B1: endogenous Tetrahymena Shulin (protein, UniProt Q22YU3 1-1200)
chain: MFNFFSSANINQNIPKYSVNDFVFRLKKIEKIVVKEGLDGFLLINGVDSRENTEYVKLTNWLFLGNSGLEIEENEYLNQIYSDMIVLIKKGTTHIFIDPEALNSLQTLIYSIPNVDVFCPTEKQYEDKDEMELLKMAFFLRVMKPTKKVGILLGQKDKGKINSIEKWPLIQSYGLEELGVGFFSMNHEVVDLTLRLNAVYKNYDKFFVSKLIYVVAKRLTGHFNSAAGQLGDMKMHKRNLATESQLTEIFRDTYEIEEISKWVQIRGVNAALPKPRVLFGKNTSADCSKEPSVAPLKDLKYSETFHSFHATFETFDLRTCLRAARTYFLAKGVKEERNLITLNDDEGVPQGYELNIDENQQYKDQDFLANLYLSIIIGFNEVMQLITKDYKNMTEEFIQDYIFQKVSKVYAGFQIPESEITLDKIQIILKAYNSFGEEVKIDFKDTISFKLTPYFFMVRIEQKNIKSQILNNTVLGSLVFAESFILQEGCYLLLTKEIPYFDLWNCQNDYSEKIEKMKKRILWEPLGKQISDELPKNRIFVQTGRKSNYGFDIPIMQASYYMHELGLRIETQRLGWFILFFKEMKEIQITQKMNHTWLIFKVDSNITFNSISKDTIALEFTGDALEQSFFKIKNYFEENQIKYEYQVDIPAIFQESQIAKKQILNQQSQGQKLITMNSIQNEQFFISYIESKQLMILNQMKDLKLSAYKNLYEQMQISQAITPVENHIGVILVNGSYCSGKRKFAENLIRFGSDNNLRLHLYKFDLNEMSELTEKSYLSGLLKFASEKKIQNTDVIVASVPHFINTKILIDYFSKSEKISNAFYIRTIATKININNIYSNFNKNPVNNVFTYGVEGYSQFLLLDTYNNYDADVNALNKTLSGVLPGAKIYKIMNNILNPALAKDILTSITFISEQNNLNRLKYSVQYDLLTSNGPSSVVFIPFKLPILREKIRDLIYKKILQNGNQTLVDTIEAEQKIAEFKELNKNSKDPLMIEIIKLKEKIEIQNAQTSDQAIKIDYVKGILRYDSKLKEGLEEITITPNYFIERTVKGVDAKEFTEELNGVSFKNVKYTGITNSIINDMGFVFAGKNLNKEKLLELLYKLVKPLNKQKLRQRKDLTEEEIVDIQFRNRGEGLENGEFYDGQFWRNIQGLILPHHPKKDEFIEEYLKQEEVRINQINEQLQQEWETWKQVYDKIHLDK

binding [2]: binds
B2: LC3/NME9 (protein, UniProt Q86XW9 1-330)
chain: MGSRKKEIALQVNISTQELWEEMLSSKGLTVVDVYQGWCGPCKPVVSLFQKMRIEVGLDLLHFALAEADRLDVLEKYRGKCEPTFLFYAGGELVAVVRGANAPLLQKTILDQLEAEKKVLAEGRERKVIKDEALSDEDECVSHGKNNGEDEDMVSSERTCTLAIIKPDAVAHGKTDEIIMKIQEAGFEILTNEERTMTEAEVRLFYQHKAGEEAFEKLVHHMCSGPSHLLILTRTEGFEDVVTTWRTVMGPRDPNVARREQPESLRAQYGTEMPFNAVHGSRDREDADRELALLFPSLKFSDKDTEAPQGGEAEATAGPTEALCFPEDVD

Results are given in words; binding and its absence hold for the method and conditions named. In cells and extracts the contact can be indirect. Here binding means that the protein was enriched with, or labelled near, the bait; the list need not be complete. Each block holds one binder with its values, some of them ahead of it.
